# Assay results published in PubChem BioAssay AID587 (National Center for Advancing Translational Sciences (NCATS), 2007).
# About 35 (0.06%) of roughly 59,000 compounds were called active. Inconclusive results, whose numbers are uncertain, are shown with a selection of clear calls. Rule as the data show it: active = max dye-equivalent concentration above about 10 nM; inconclusive = between about 1.1 nM and that limit; inactive = weaker than that.
# Experiment: qHTS Assay for Spectroscopic Profiling in Texas Red Spectral Region
# Details: Compound fluorescence, Texas Red channel, 547/618 nm; stronger effect = higher value
# In short: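 Texas Red-region profiling: compounds in 100 mM Tris pH 8.0 were read at 547/618 nm after 15 min at room temperature. Intensities were normalized against a six-point Texas Red standard series to give dye-equivalent concentration.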
row,SMILES,max dye-equivalent concentration
1,CC1(C)Cc2c(c(N3CCOCC3)nc3sc(C#N)c(N)c23)CS1,inconclusive: 1.1 nM
2,Cc1cc(=O)oc2ccc(OCC(=O)N(Cc3ccc(F)cc3)Cc3ccco3)cc12,inconclusive: 1.1 nM
3,CN1CC[C@@]2(CCCN(C(=O)c3cccn3C)C2)C1,inactive
4,CCCCNC(=O)c1ccc2c(c1)ncn2C1CCCCC1,inconclusive: 1.4 nM
5,COc1cc2c(cc1NC(=O)CC1SC(N3CCCC3)=NC1=O)oc1ccccc12 (stereo not drawn),inconclusive: 2.3 nM
6,CCOc1ccccc1-n1c(SCC(=O)NC(C)(C)C)nnc1-c1ccoc1C,inconclusive: 2.1 nM
7,O=C(Nc1nccs1)c1ccc2nccnc2c1,inconclusive: 1.1 nM
8,c1cc2c(cc1Nc1nc(-c3ccc4c(c3)OCO4)cs1)OCCO2,inconclusive: 1.3 nM
9,CCCCOc1cccc(C(=O)N(Cc2ccco2)C2CCS(=O)(=O)C2)c1 (stereo not drawn),inconclusive: 2.4 nM
10,Cc1cnc(C(=O)Nc2ccc(F)c(F)c2)cn1,inconclusive: 1.7 nM
11,CC1=CC(=C(C#N)c2nc3ccccc3s2)C=C(C)N1Cc1ccco1,inactive
12,O=C1C2CC=C(Cl)CC2C(=O)N1CCc1ccccc1 (stereo not drawn),inactive
13,NNC(=O)c1ccncc1,inconclusive: 1.8 nM
14,Cc1nc2ncnn2c(Nc2ccc3c(c2)OCCO3)c1C,inconclusive: 2 nM
15,O=C(Cc1ccccc1)Nc1ccc2oc(-c3cccnc3)nc2c1,inconclusive: 1.1 nM
16,CCC(=O)N1c2ccc(S(=O)(=O)CCC(=O)NCc3ccc4c(c3)OCO4)cc2CC1C (stereo not drawn),inconclusive: 1.2 nM
17,O=C(/C=N/O)NCC1CCNCC1,inconclusive: 1.1 nM
18,CCOC(=O)N1CCN(S(=O)(=O)c2ccc3c(c2)oc(=O)n3C)CC1,inconclusive: 1.1 nM
19,COc1cccc(-c2cncnc2NCc2cccnc2)c1,inactive
20,O=C(NC1CCCC1)C(c1ccsc1)N(Cc1ccco1)C(=O)Cc1cccs1 (stereo not drawn),inactive
21,COc1ccc(S(=O)(=O)N(CC(=O)Nc2cc(C)on2)Cc2ccccc2)cc1,inconclusive: 1.5 nM
22,O=C(COC(=O)c1cc[n+]([O-])cc1)Nc1ccc2c(c1)OCCO2,inconclusive: 1.4 nM

# Retrieved by structure from above (3):
row,SMILES,max dye-equivalent concentration
11,CC1=CC(=C(C#N)c2nc3ccccc3s2)C=C(C)N1Cc1ccco1,inactive
9,CCCCOc1cccc(C(=O)N(Cc2ccco2)C2CCS(=O)(=O)C2)c1 (stereo not drawn),inconclusive: 2.4 nM
6,CCOc1ccccc1-n1c(SCC(=O)NC(C)(C)C)nnc1-c1ccoc1C,inconclusive: 2.1 nM

# The list continues:

row,SMILES,max dye-equivalent concentration
1,CCOCCCNC(=O)c1ccc2c(c1)OCO2,inconclusive: 1.1 nM
2,CCc1nnc(NC(=O)CCC(=O)N2CCN(Cc3cc(Cl)ccc3OC)CC2)s1,inconclusive: 1.9 nM
3,CCN1CCN(c2ccc(NC(=O)c3cccnc3)cc2Cl)CC1,inconclusive: 1.2 nM
4,COc1cccc2c1C(=O)c1c(O)c3c(c(O)c1C2=O)C[C@@](O)(C(=O)CO)C[C@H]3O[C@H]1C[C@@H](N)[C@H](O)[C@@H](C)O1.[W],inconclusive: 1.9 nM
5,COc1cc(/C=C\C(=O)CC(=O)/C=C\c2ccc(O)c(OC)c2)ccc1O,inactive
6,Cc1sc2nc(CN(Cc3cccs3)C(=O)NC3CCCCC3)[nH]c(=O)c2c1C,inconclusive: 1.6 nM
7,CCn1nnnc1SCC(=O)N1CCOCC1,inconclusive: 2.3 nM
8,COCCn1nnnc1CN(CCc1ccccc1)Cc1cc2ccc(C)cc2[nH]c1=O,inconclusive: 1.2 nM
9,Cc1ccc2nc(NC(=O)CNS(=O)(=O)c3ccc(Br)s3)sc2c1,inconclusive: 2.1 nM
10,C(=C\c1ccccc1)/CSc1nnc(-c2cccnc2)n1Cc1ccco1,inconclusive: 2.3 nM
11,C[C@@H](CN1CCC(Cc2ccccc2)CC1)[C@H](O)c1ccc(O)cc1,inconclusive: 1.1 nM
12,O=C1c2ccc(-c3nc4ccccc4o3)cc2C(=O)N1Cc1cccnc1,inconclusive: 1.2 nM
13,CCCCn1c(SCC(=O)N2CCCCC2)nc2cc(S(N)(=O)=O)ccc21,inconclusive: 1.1 nM
14,CSc1nc(-c2ccccc2)nc(SC)c1C(C)=O,inconclusive: 1.2 nM
15,COc1cc(C2C3C(C)N(C)C(=O)N(C)C3N(C)C(=O)N2C)ccc1O (stereo not drawn),inconclusive: 1.1 nM
16,CCC1c2ccc(C)n2CCN1C(=O)Nc1ccccc1OC (stereo not drawn),inconclusive: 1.1 nM
17,Cc1cc(NC(=O)c2cc(S(=O)(=O)N3CCCCC3)ccc2C)n(-c2ccccn2)n1,inconclusive: 2.5 nM
18,CSCC[C@H](NC(=O)OC(C)(C)C)c1nnc(SCC(=O)N(C)C)o1,inconclusive: 1.1 nM
19,CCOC(=O)c1c(C)[nH]c(C)c1C(=O)CSc1nc(N)cc(N)n1,inconclusive: 1.2 nM
20,CCOC(=O)c1sc(C)c2c(=O)n(CCCN3CCOCC3)cnc12,inconclusive: 1.1 nM
21,CCOC(=O)C(NC(C)=O)C(OC(C)=O)c1cccc(N(CCO)CCO)c1 (stereo not drawn),inconclusive: 1.1 nM
